Source: PubChem BioAssay AID720697 (Broad Institute, 2013)
The inconclusive results got no clear call from the source; some entries with a clear call stand among them for comparison. Calls of active or inactive are those of the source.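 The calls were made as follows: active = signal loss with fitted half-maximal concentration at or below twice the top valid tested dose in every test run; inconclusive = runs disagree, flat 30 to 70% signal loss, or poor fit; inactive = all runs flat, opposite direction, or potency beyond limit.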

assay: general mammalian cell viability loss – inhibitor set, cherry-pick, set 2, cytotoxicity control for miR-122 modulator project, dose response (AID 720697); conditions: HEK293T viability, CellTiter-Glo luminescence, 48 h; at 26 µM (top of the series) unless noted;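 also: 0% = median of neutral control wells and -100% = MG132 positive control wells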

SMILES	activity change, negative = cytotoxicity
COc1ccc(C(=O)C2CCCN(Cc3cccn3-c3ccccn3)C2)c(OC)c1 (stereo unspecified)	inconclusive: -73.8%
CCCNC(=O)Nc1ccc2c(c1)C(=O)N(C)[C@@H]1CC[C@H](CC(=O)NCC3CCCCC3)O[C@H]1CO2	inconclusive: -98.1%
CNC(=O)C[C@H]1CC[C@@H]2[C@H](COc3ccc(NC(=O)Nc4ccccc4)cc3C(=O)N2C)O1	inconclusive: -34.7%
COCC(=O)Nc1ccc2c(c1)C(=O)N(C)[C@@H]1CC[C@@H](CC(=O)NC3CCCC3)O[C@H]1CO2	inactive: 103% [at 23.5 µM]
CN1C(=O)c2cc(NC(=O)c3cccc(F)c3)ccc2OC[C@@H]2O[C@@H](CC(=O)NC3CCC3)CC[C@@H]21	inconclusive: -53.7%
O=C(c1cccnc1)N1C[C@H]2[C@@H](c3ccccc31)[C@H](CO)N2C(=O)Nc1ccccc1Cl	inactive: 136% [at 23.5 µM]
